Primary screen of a compound library

Data taken from ChEMBL document CHEMBL3988442, “University of Dundee, Small-Polar-MMV Screening Library” (2021).

A: 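Phenotypic screen: M. tuberculosis growth, cholesterol and DPPC medium, 4 days; the read-out is not stated. Concentration: 50 µM. Direction is inferred from retests: higher values go with more growth inhibition. About 69,000 compounds were tested under these conditions; 0.54% (about 370) showed 50% or more at least once.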
B: 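Phenotypic screen: M. tuberculosis growth, glucose 7H9 medium, 3 days; the read-out is not stated. Compounds at 50 µM. Higher reads as more growth inhibition (inferred: compounds with an IC50 in retests scored well above the rest). Of about 69,000 compounds tested this way, about 760 (1.1%) reached 50% or more in at least one test.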

Results are given as percent effect.
The controls that fix the scale are not given in the record; negative values are as filed.
The compounds are a random part of those screened.
Two or more numbers in one place are separate tests of the same structure; such repeats can differ widely.

Result for Cc1nc(CN2CC(CCCc3ccccn3)(C(=O)N(C)C)C2)co1 was A: 8.361%; B: 4.371%.
Result for COc1ccc(Cl)cc1NCC(=O)N(Cc1ccccn1)C1CC1 was A: -1.972%; B: -3.551%.
Result for [H][C@]12CC[C@]([H])(CN(Cc3cc(-c4ccccc4)no3)C1)N(CC1CCC1)C2 was A: 78.17% and 72.26%; B: 85.07%.
Result for O=C(NCCCn1cccn1)c1nnc2ccccc2n1 was A: -0.1757%; B: 37.54%.
Result for CC(C)(C)C(=O)N1CCC(COCc2ccccc2)C1 (centres unmarked) was A: 15.35%; B: -1.977%.
Result for CC(C)c1noc(CCCC(=O)Nc2cccc(F)c2)n1 was A: -20.77%; B: 4.154%.
Result for CCOCC(O)CN1CCN(C(=O)C2CCCC2)CC1 (centres unmarked) was A: -4.089%; B: -27.87%.
Result for O=C(O)C1(n2ccc(-c3ccco3)n2)CCN(Cc2ccsc2)CC1 was A: 14.25%; B: 9.775%.
Result for Cc1ccc(C(=O)NC2CCN(Cc3cccc4c3OCCO4)CC2)s1 was A: 2%; B: 28.95%.
Result for O=C1CC(CNc2cncc(Br)c2)c2ccccc2N1 (centres unmarked) was A: -7.507%; B: 12.09%.
Result for CSC(C)CCN1CCC(n2cc(C3CCCCC3)nn2)CC1 (centres unmarked) was A: -2.475% and 10.64%; B: 7.568%.
Result for [H][C@]12CC[C@]([H])(CN(Cc3ccccn3)C1)N(C(=O)c1cc(C3CC3)no1)C2 was A: -7.881%; B: -1.206%.
Result for CC1N(c2cnn(C)c2)C(=O)COC12CCN(c1ccccn1)CC2.O=C(O)C(F)(F)F (centres unmarked) was A: -6.07%; B: 10.24%.
Result for [H][C@]12CC[C@]([H])(CN(C3CSCCSC3)C1)N(Cc1cscn1)C2=O was A: -29.76%; B: -29.08%.
Result for Cc1cccc(C)c1NC(=O)CCNC(=O)c1ccoc1 was A: -28.64%; B: -20.63%.
Result for CCN1CC2(CC1=O)CN(C(=O)C(C)C)CCN(S(C)(=O)=O)C2 (centres unmarked) was A: -23.5%; B: -9.458% and -52.53%.
Result for COCCOCCNC(=O)N1CCN(c2ccccc2C#N)CC1 was A: -20.3%; B: 11.69%.
Result for Cc1ccc(CN(CCCn2ccnc2)Cc2[nH]cnc2C)s1.O=C(O)CC(O)(CC(=O)O)C(=O)O was A: -32.23%; B: 1.074%.
Result for Cc1nc(N)nc(C)c1CC(=O)N1CCC2(CC1)OCCCC2O (centres unmarked) was A: -2.023%; B: 7.228%.
Result for CCCc1cc(C(=O)N[C@H](C)[C@@H](O)c2ccc(O)cc2)n(C)n1 was A: -5.923%; B: -22.61% and -8.424%.
Result for CCc1noc(CCC(=O)N[C@@H]2CC[C@@H](n3ccnc3C)[C@@H]2O)n1 was A: -3.933%; B: -10.22%.
Result for O=C(Cc1cccs1)NCc1ccnc(OC2CCOCC2)c1 was A: 3.778%; B: 23.2%.
Result for CCC(Nc1nc(CCN)nc2ccccc12)c1cccs1 (centres unmarked) was A: 8.995%; B: 36.31% and 7.858%.
Result for CC(C)c1nccc(CN2CCCC(O)(CN(C)C)C2)n1 (centres unmarked) was A: -17.87%; B: -47.69%.
Result for Cc1ccc(OCC(=O)N(C)Cc2cccc(F)c2)cn1 was A: 15.04%; B: 23.13%.
Result for Cc1nc(N2CCCN(c3ncccn3)CC2)c2cnn(C)c2n1 was A: 16.71%; B: -0.6505%.
Result for O=C(O)C(F)(F)F.[H][C@]12CCN(c3ccccn3)[C@@]1([H])CC[C@@H](COCc1csc(C)n1)O2 was A: -4.586%; B: -13.93%.
Result for O=C(NC1CCN(C2CC2)CC1)NC1CCOc2ccc(Br)cc21 (centres unmarked) was A: -41.07%; B: -25.23%.
Result for CC1COCCN1C(=O)Cc1cc(Cl)c2c(c1)OCCCO2 (centres unmarked) was A: 12.95%; B: -0.07469%.
Result for CCc1cc(C(=O)N2CC[C@@H](c3ccc4c(c3)OCO4)[C@H](O)C2)ccn1 was A: -22.56%; B: -18.14%.
Result for O=C(O)C(F)(F)F.c1cnc(N2CC3(CCN(CC4CCOC4)CC3)c3ccccc32)nc1 (centres unmarked) was A: 4.156%; B: -7.918% and -7.715%.
Result for CN(C)CC(=O)N1CCC2(CC1)CN(Cc1cccnc1)C(=O)CO2 was A: -4.537% and -4.341%; B: -10.26%.
Result for Cc1noc(C)c1CN1CCc2ncnc(-c3ccc(F)cc3)c2CC1.O=C(O)C(F)(F)F was A: 5.718%; B: 22.64%.
Result for CCSc1ccc(C(=O)N2CCCC2C(=O)N2CCOCC2)cn1 (centres unmarked) was A: 1.754%; B: 2.913%.
Result for [H][C@@]12CN(Cc3cccc(OC)c3)CC[C@]1([H])N(C(C)=O)C[C@H]2c1ccsc1 was A: -21.24%; B: -46.09%.
Result for COc1cc(C)nc(N2CCN(C(=O)c3cccc(C#N)c3)CC2)n1 was A: -10.48%; B: 27.75%.
Result for CC(C)c1nc(CN(C)C(=O)CNS(=O)(=O)c2cccs2)cs1 was A: 0.7168%; B: -1.733% and -10.37%.
Result for Cn1c(C(N)=O)ccc1-c1ccccc1 was A: 10.82%; B: -4.439%.
Result for Cn1ccc(CN2CC(Cc3nccc4cc[nH]c34)C2)n1 was A: -2.762%; B: 23.92%.
Result for c1coc(-c2noc(CN3CCCC3Cn3cncn3)n2)c1 (centres unmarked) was A: 0.7925%; B: -16.17%.

For reference, 4 entries once more:

{"smiles": "O=C(Cc1cccs1)NCc1ccnc(OC2CCOCC2)c1", "A": 3.778, "B": 23.2}
{"smiles": "Cc1ccc(C(=O)NC2CCN(Cc3cccc4c3OCCO4)CC2)s1", "A": 2, "B": 28.95}
{"smiles": "Cc1nc(N)nc(C)c1CC(=O)N1CCC2(CC1)OCCCC2O", "stereo": "centres unmarked", "A": -2.023, "B": 7.228}
{"smiles": "CCc1noc(CCC(=O)N[C@@H]2CC[C@@H](n3ccnc3C)[C@@H]2O)n1", "A": -3.933, "B": -10.22}